{"source": "patent US20060241122A1", "about": "“Combination therapy for the treatment of neoplasms” (priority 2003, published 2006)", "key": {"[1]": {"test_system": "human colorectal carcinoma HCT116 cells", "experiment": "Anti-proliferation assay (Alamar Blue metabolism), HCT116 cells;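 note: cells in 384-well plates exposed to compound combination matrices for 72 h, Alamar Blue fluorescence read (excitation 530 nm), inhibition calculated against mean of vehicle-only wells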"}, "[2]": {"test_system": "human melanoma SKMEL-28 cells", "experiment": "Anti-proliferation assay (Alamar Blue metabolism), SKMEL-28 cells", "assay_type": "cell-based", "conditions": "SK-MEL-28, read-out: maximal inhibition", "source_text": "(§1) The combination matrices were used immediately and discarded."}, "[3]": {"test_system": "human prostate cancer DU145 cells", "experiment": "Anti-proliferation assay (Alamar Blue metabolism), DU145 cells", "assay_type": "cell-based", "source_text": "as §1"}, "[4]": {"test_system": "human pancreatic cancer PANC1 cells", "experiment": "Anti-proliferation assay (Alamar Blue metabolism), PANC1 cells", "assay_type": "cell-based", "conditions": "PANC-1, PANC1 cells", "source_text": "as §1"}, "[5]": {"conditions": "HCT-116, read-out: Percent inhibition of Alamar Blue Metabolism, atorvastatin […], clotrimazole 0.0 μM"}}, "note": "Where two headings read alike, the source gives them in different places."}
{"smiles": "CC(C)c1c(C(=O)Nc2ccccc2)c(-c2ccccc2)c(-c2ccc(F)cc2)n1CC[C@@H](O)C[C@@H](O)CC(=O)O", "note": "[Atorvastatin, atorvastatin]", "values": [{"measurement": "inhibition at 18 µM", "setting": "[1]; HCT-116, HCT116 cells, 18 μM atorvastatin + […] ketoconazole", "result": 68.3, "unit": "%"}, {"measurement": "inhibition at 0.28 µM", "setting": "[1]; HCT-116, read-out: Percent inhibition of Alamar Blue Metabolism, atorvastatin 0.28 μM, ketoconazole 0 μM", "result": -4.3, "unit": "%"}, {"measurement": "inhibition at 0.28 µM", "setting": "[1]; HCT-116, read-out: Percent inhibition of Alamar Blue Metabolism, atorvastatin 0.28 μM, terconazole 0 μM", "result": 0.3, "unit": "%"}, {"measurement": "inhibition at 0.3 µM", "setting": "[1]; HCT-116, read-out: Percent inhibition of Alamar Blue Metabolism, atorvastatin 0.3 μM, clotrimazole 0.0 μM", "result": 8.1, "unit": "%"}, {"measurement": "inhibition at 0.3 µM", "setting": "[1]; HCT-116, read-out: Percent inhibition of Alamar Blue Metabolism, atorvastatin 0.3 μM, econazole 0.0 μM", "result": 2.7, "unit": "%"}, {"measurement": "inhibition at 0.6 µM", "setting": "[1]; HCT-116, read-out: Percent inhibition of Alamar Blue Metabolism, atorvastatin 0.6 μM, clotrimazole 0.0 μM", "result": 19.3, "unit": "%"}, {"measurement": "inhibition at 0.6 µM", "setting": "[1]; HCT-116, read-out: Percent inhibition of Alamar Blue Metabolism, atorvastatin 0.6 μM, econazole 0.0 μM", "result": 2.5, "unit": "%"}, {"measurement": "inhibition at 9 µM", "setting": "[1]; HCT-116, read-out: Percent inhibition of Alamar Blue Metabolism, atorvastatin 9.0 μM, clotrimazole 0.0 μM", "result": 56.8, "unit": "%"}, {"measurement": "inhibition at 9 µM", "setting": "[1]; HCT-116, read-out: Percent inhibition of Alamar Blue Metabolism, atorvastatin 9.0 μM, econazole 0.0 μM", "result": 32.8, "unit": "%"}, {"measurement": "inhibition at 9 µM", "setting": "[1]; HCT-116, read-out: Percent inhibition of Alamar Blue Metabolism, atorvastatin 9 μM, ketoconazole 0 μM", "result": 20.4, "unit": "%"}, {"measurement": "inhibition at 9 µM", "setting": "[1]; HCT-116, read-out: Percent inhibition of Alamar Blue Metabolism, atorvastatin 9 μM, terconazole 0 μM", "result": 21, "unit": "%"}, {"measurement": "inhibition at 18 µM", "setting": "[1]; HCT-116, read-out: Percent inhibition of Alamar Blue Metabolism, atorvastatin 18 μM, ketoconazole 0 μM", "result": 42.7, "unit": "%"}, {"measurement": "inhibition at 18 µM", "setting": "[1]; HCT-116, read-out: Percent inhibition of Alamar Blue Metabolism, atorvastatin 18 μM, terconazole 0 μM", "result": 40.2, "unit": "%"}, {"measurement": "inhibition at 36 µM", "setting": "[1]; HCT-116, read-out: Percent inhibition of Alamar Blue Metabolism, atorvastatin 36 μM, terconazole 0 μM", "result": 66.4, "unit": "%"}, {"measurement": "inhibition at 18 µM", "setting": "[1]; [5]", "result": 59.8, "unit": "%"}, {"measurement": "inhibition at 36 µM", "setting": "[1]; [5]", "result": 89.3, "unit": "%"}, {"measurement": "inhibition at 18 µM", "setting": "[1]; HCT-116, read-out: Percent inhibition of Alamar Blue Metabolism, atorvastatin […], econazole 0.0 μM", "result": 53, "unit": "%"}, {"measurement": "inhibition at 36 µM", "setting": "[1]; HCT-116, read-out: maximal inhibition, HCT116 cells, atorvastatin 36 μM alone (Example 7)", "result": 69, "unit": "%"}, {"measurement": "inhibition at 36 µM", "setting": "[1]; HCT-116, read-out: maximal inhibition, HCT116 cells, atorvastatin 36 μM alone (Example 17)", "result": 89.3, "unit": "%"}, {"measurement": "inhibition at 36 µM", "setting": "[1]; HCT-116, read-out: maximal inhibition, HCT116 cells, atorvastatin 36 μM alone (Example 21)", "result": 66.4, "unit": "%"}, {"measurement": "inhibition at 36 µM", "setting": "[2]", "result": 45.9, "unit": "%"}, {"measurement": "inhibition", "setting": "[3]; DU145 cells, atorvastatin in the presence of 28 μM itraconazole", "result": 55.6, "unit": "%"}, {"measurement": "inhibition at 36 µM", "setting": "[3]; Homo sapiens, DU-145, DU145 cells, atorvastatin 36 μM alone, read-out: maximal inhibition", "result": 25.6, "unit": "%"}, {"measurement": "inhibition at 9 µM", "setting": "[4]; 9 μM atorvastatin + 7 μM itraconazole", "result": 36, "unit": "%"}, {"measurement": "inhibition at 9 µM", "setting": "[4]; 9 μM atorvastatin, absence of itraconazole", "result": 6.8, "unit": "%"}, {"measurement": "inhibition at 36 µM", "setting": "[4]; atorvastatin 36 μM alone, read-out: maximal inhibition", "result": 37.5, "unit": "%"}]}
